Measurements taken from patent publication US20220175882A1, “BETA-CASEIN A2 AND REDUCING OR […] OF LACTOSE INTOLERANCE” (THE A2 MILK COMPANY LIMITED, priority 2013, published 2022).
pIC50: −log10 of the molar value.

Key:
[1] = system: SH-SY5Y human neuronal cells; test: cells
Procedure: (§1) Pre-treatment in cells was performed for different time points for 30 min, 4, 24 and 48 h as described previously (Trivedi M., et al.; Mol. Pharm., 2014). SH-SY5Y human neuronal cells and Caco-2 Gut epithelial cells were plated in six-well plates and were pretreated with drugs and incubated for various times prior to measuring uptake. Media were aspirated and cells were washed with 600 μL of HBSS at 37° C. Non-radioactive HBSS was aspirated, replaced with 600 μL of 37° C. HBSS containing [^35S]-cysteine (1 μCl/1 mL), 10 μM unlabelled cysteine and 100 μM DTT, and the cells were incubated for 5 min. The [^35S]-cysteine/HBSS mixture was aspirated and treatment was terminated by two washes with ice-cold HBSS. Cells were then lysed with 600 μL of dH2O, scraped, collected in 1.5 mL microcentrifuge tubes, and sonicated for 10 s. 100 μL of each sample was aliquoted for protein assay. 200 μL of each sample (in triplicate) was aliquoted into scintillation vials with 4 mL of scintillation fluid, vortexed, and counted for radioactivity (normalised against protein content). […] The symbol * used in these figures indicates a statistically significant difference (p<0.05) compared against the untreated control, and the symbol # indicates a statistically significant difference (p<0.005) compared against the untreated control.

[2] = system: Caco-2 Gut epithelial cells; test: cells; settings: Homo sapiens, Caco-2, read-out: IC50, inhibition of cysteine uptake
Procedure: as §1

SH-SY5Y neuronal cells = test: Intracellular cysteine, GSH and SAM/SAH levels by HPLC with electrochemical detection; assay type: cell-based, human; settings: 30 min, 4 h, 24 h
Procedure: Media was aspirated and the cells were washed twice with 1 mL of ice cold HBSS. HBSS was aspirated and 0.6 mL ice cold dH2O was added to the cells. The cells were scraped from the flask/dish and suspended in dH2O. […] The remaining lysate was added to a microcentrifuge tube and an equal volume of 0.4 N perchloric acid was added, followed by incubation on ice for 5 min. Samples were centrifuged at 5,000×g and the supernatant transferred to new microcentrifuge tubes.
The separation of redox and methylation pathway metabolites was accomplished using an Agilent Eclipse XDB-C8 analytical column (3×150 mm; 3.5 μm) and an Agilent Eclipse XDB-C8 (4.6×12.5 mm; 5 μm) guard column. […] The flow rate was initially set at 0.6 mL/min and a step gradient was used: 0-9 min 0% B, 9-19 min 50% B, 19-30 min 50% B. The column was then equilibrated with 5% B for 12 min prior to the next run. Temperature was maintained at 27° C. […] Sample concentrations were determined from the peak areas of metabolites using standard calibration curves and ESA-supplied HPLC software. Sample concentrations were normalised against protein content. In some cases samples were diluted in mobile phase as needed or up to 50 μl of sample was injected to assure that thiol levels were within the range of the standard curve.

SMILES: CN1CC[C@]23c4c5ccc(O)c4O[C@H]2[C@@H](O)C=C[C@H]3[C@H]1C5 [Morphine, morphine]
- pIC50 ([1]; Homo sapiens, SH-SY5Y, read-out: IC50, inhibition of cysteine uptake): 9.80
- Receptor mediating the effect on cysteine uptake ([1]; in presence of CTAP (selective μ-antagonist) or naltrindole (delta antagonist), FIG. 6): μ-opioid receptor mediated
- Time course of inhibition of cysteine uptake ([1]; neuronal cells and GI epithelial cells (FIG. 5), 30 min to 48 h exposure): fully developed after 30 minutes and was sustained through 48 hours
- pIC50 [2]: 8.20
- Cysteine and glutathione (GSH) levels (SH-SY5Y neuronal cells): time-dependent decreases
